No constants are given. Whether binding was seen depends on the method and setting. Some results given as binding are weak or reduced against the parent protein; the word gives no strength.
Assays:
[1] = target: curli fibrils (CsgA) purified from Salmonella enterica serovar Typhimurium biofilm cultures (Salmonella enterica serovar Typhimurium) (UniProt P0A1E7); test: thioflavin T fluorescence; purified curli preparations, ~1 mg/ml, 10 uM ThT; excitation 440 nm, emission 500 nm; both purified
[2] = target: curli fibrils (CsgA) purified from Salmonella enterica serovar Typhimurium biofilm cultures (Salmonella enterica serovar Typhimurium) (UniProt P0A1E7); test: dynamic light scattering; purified curli preparations, ~1 mg/ml, filtered; Malvern Zetasizer Nano-ZS90, He-Ne laser 632 nm; both purified
[3] = target: curli fibrils (CsgA) purified from Salmonella enterica serovar Typhimurium biofilm cultures (Salmonella enterica serovar Typhimurium) (UniProt P0A1E7); test: tryptophan fluorescence (steady state); purified curli preparations, ~1 mg/ml; excitation 295 nm, emission 310-420 nm; single tryptophan of CsgA as probe of aggregation; both purified

Measured: binding

B1: curli fibrils (CsgA) purified from Salmonella enterica serovar Typhimurium biofilm cultures (protein, UniProt P0A1E7 21-151)
chain: GVVPQWGGGGNHNGGGNSSGPDSTLSIYQYGSANAALALQSDARKSETTITQSGYGNGADVGQGADNSTIELTQNGFRNNATIDQWNAKNSDITVGQYGGNNAALVNQTASDSSVMVRQVGFGNNATANQY
binds: all assays above

Reference: article PMC9380926
